System: STZ-induced diabetic rats
Test: Serum glucose and body weight in streptozosin (STZ)-induced diabetic rats
Assay type: in vivo
Details: after 21 days
Method: 2. The effect of KMUP-1 on decreasing the amount of the serum glucose in streptozosin (STZ)-induced diabetic rats
60 mg/kg of streptozosin is injected intravenously for inducing the STZ-induced rats, and the KMUP-1 HCl salt (0.5, 1.5, 2.5 and 5 mg/kg) and KMUP-1-Simvastatinic acid (5 mg/kg) are administered orally. After 21 days, the amount of the serum glucose (mg/dl), the amount of the serum insulin (mg/dl), the body weight (g) and the change of the body weight are measured.

SMILES: Cl.Cn1c(=O)c2c(ncn2CCN2CCN(c3ccccc3Cl)CC2)n(C)c1=O [KMUP-1 HCl salt, 7-[2-[4-(2-chlorobenzene)piperazinyl]ethyl]-1,3-dimethyl xanthine HCl]
- Body weight (0.5 mg/kg orally): 312.2 ± 8.9 g
- Body weight (1.5 mg/kg orally): 310.2 ± 7.4 g
- Body weight (2.5 mg/kg orally): 308.2 ± 8.4 g
- Body weight (5 mg/kg orally): 301.3 ± 11.7 g
